Where “and” joins values, the source holds several entries; their conditions need not be identical. Equal entries are not always repeated. The list shows a part of the results. Shown are side measurements of this screen, not its main read-out; they come without a call. The list favours compounds with an active or inconclusive main result. The note in brackets gives the kind of curve behind each potency; many fits are weak.
Assay: Cell signaling CRE-BLA (Fsk stim)
Details: CHO CRE-bla reporter (cAMP response element driving beta-lactamase), forskolin EC10, beta-lactamase ratio; measured here: 460 nm blue channel
Method in brief: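 Cells were plated overnight at 37 °C, exposed to compound titrations plus EC10 NKH 477 for 3 h, then given CCF4 dye for 2 h at room temperature. Blue/green (460/530 nm) ratio was converted to %Activity and AC50 values calculated.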

SMILES | AC50
O=C(Cc1c[nH]c2ccccc12)Nc1nc2ccccc2[nH]1 | 0.126 µM [falling, full curve, poor fit]
CNc1nc(-c2cccc(C#N)c2)nc2ccccc12 | 10 µM [rising, single point]
COc1ccc(Cl)c(Cn2c(NCC(C)O)nc3c2c(=O)n(C)c(=O)n3C)c1 (configuration not stated) | 15.8 µM [rising, partial curve]
O=C(CN1CCN(S(=O)(=O)c2ccc(F)cc2)CC1)Nc1ccc2c(c1)OCCO2 | 31.6 µM [falling, partial curve, poor fit]
Cc1ccc(C(=O)/C=C/Nc2ccccc2C(N)=O)o1 | 12.6 µM [rising, partial curve]
Cc1sc(NC(=O)c2ccc(Cl)s2)c(C(N)=O)c1C | 25.1 µM [rising, single point]
CCOC(=O)C1=C(N2CCCCC2)c2cc3c(n2C1=O)CCCC3 | 10 µM [rising, single point]
CN(C)C(=O)c1ccc(-c2ccc3ncnc(NCc4cccs4)c3c2)cc1 | 25.1 µM [rising, single point]
COc1cccc(-n2nnc3c(=O)n(Cc4ccc(F)cc4)cnc32)c1 | 12.6 µM [rising, single point]
O=C(c1cc2ccccc2oc1=O)N1CCCN(C(=O)c2cc3ccccc3oc2=O)CC1 | 20 µM [falling, partial curve, poor fit]
CN(C)c1ncc2nc(-c3ccc(Cl)cc3)c(=O)n(CCC#N)c2n1 | 5.01 µM [rising, partial curve]
Cc1ccc(Cl)cc1N1CCN(C(=O)CCS(=O)(=O)c2cccc3nonc23)CC1 | 0.01 µM [falling, full curve, poor fit]
CSCCC(C(=O)Nc1ccc2c(c1)OCO2)N1C(=O)c2ccccc2C1=O (configuration not stated) | 0.0251 µM [falling, full curve, poor fit]
Cc1cc(C(=O)Nc2nnc(-c3ccccc3)s2)no1 | 0.0794 µM [falling, full curve, poor fit]
Cc1ccc(C(=O)NC2CC3CCCC(C2)N3C(=O)NC2CCCCC2)cc1 (configuration not stated) | 3.16 µM [falling, full curve]
Cc1noc(C)c1CSc1nc2ccccc2c(=O)n1-c1ccc(F)cc1F | 10 µM [rising, single point]
N#C/C=C\Oc1ccc(Cl)cc1N | 15.8 µM [falling, partial curve]
CCOC(=O)c1cnc(-n2nc(C)cc2C)nc1Nc1ccc(N(C)C)cc1 | 10 µM [rising, single point]
O=C(CCCCC(=O)N1CCN(c2ccccc2)CC1)N1CCN(c2ccccc2)CC1 | 0.631 µM [falling, full curve]
CC(NC(=O)c1cc2c(=O)n(C)c3ccccc3c2n1C)c1ccc2c(c1)OCCO2 (configuration not stated) | 1 µM [rising, partial curve]
COc1ccc2cnn(CCOc3ccccc3)c(=O)c2c1OC | 12.6 µM [rising, partial curve]
Cc1ccc(-c2c3c(=O)n(C)c(=O)n(C)c3cn2N2CCOCC2)cc1 | 12.6 µM [rising, single point]
CC(C)C[C@H]1C(=O)N2CCC[C@@H]2[C@]2(O)O[C@](NC(=O)[C@H]3C=C4c5cccc6[nH]c(Br)c(c56)C[C@H]4N(C)C3)(C(C)C)C(=O)N12 | 10 µM [rising, single point] and 10 µM [rising, partial curve]

Reprinted from the listing (2 entries):
SMILES | AC50
CC(NC(=O)c1cc2c(=O)n(C)c3ccccc3c2n1C)c1ccc2c(c1)OCCO2 (configuration not stated) | 1 µM [rising, partial curve]
COc1ccc2cnn(CCOc3ccccc3)c(=O)c2c1OC | 12.6 µM [rising, partial curve]

Following part.

SMILES | AC50
CC(=O)c1cc2c(cc1NC(=O)CN1CCOCC1)OCO2 | 12.6 µM [rising, single point]
CCN(CC(=O)NC(=O)NCc1ccco1)Cc1nc2ccccc2c(=O)[nH]1 | 0.0501 µM [falling, full curve]
CCN(CC)S(=O)(=O)c1cccc(-c2nnc(SCCOc3ccccc3C)o2)c1 | 20 µM [falling, single point]
O=C(Nc1nc(-c2cc(Cl)sc2Cl)cs1)c1cccs1 | 3.16 µM [falling, full curve]
CC(=O)c1cccc(N(CC(=O)NCC2CCCO2)C(=O)CCC(=O)Nc2cc(C)on2)c1 (configuration not stated) | 0.01 µM [falling, full curve, poor fit]
Nn1c(SCC(=O)Nc2ccc3c(c2)OCO3)nnc1C1CCCCC1 | 3.16 µM [rising, single point]
CCC(c1nnnn1C1CCCC1)N(Cc1cccs1)Cc1cc2cccc(C)c2[nH]c1=O (configuration not stated) | 5.01 µM [rising, single point]
O=c1c2ccccc2nc(-c2ccccc2)n1CCCn1ccnc1 | 0.02 µM [falling, full curve, poor fit]
O=C(NCC1COc2ccccc2O1)C1CCN(S(=O)(=O)c2cccc3nsnc23)CC1 (configuration not stated) | 1.26 µM [falling, partial curve]
Cc1c(/C=N/n2cnnc2)c2ccccc2n1CCOc1ccccc1 | 3.16 µM [rising, full curve]
CN(C)c1cc(-c2ccccc2)nc(N)n1 | 10 µM [rising, partial curve]
O=C(COc1ccccc1Cl)OCC(=O)N1CCN(S(=O)(=O)c2ccccc2)CC1 | 0.00398 µM [falling, full curve, poor fit]
Cc1ccc2nc(SCc3nnc(-c4cccs4)o3)[nH]c2c1 | 12.6 µM [rising, partial curve]
CCOC(=O)C1CCCCN1C(=O)CCc1c(C)nc2ncnn2c1C (configuration not stated) | 25.1 µM [rising, single point]
CC(C)(C)OC(=O)NCCCCCc1nnc(SCC(=O)Nc2cccc(Cl)c2)o1 | 3.16 µM [falling, partial curve]
c1ccc(Cn2nnc3c(N4CCOCC4)ncnc32)cc1 | 10 µM [rising, partial curve]
Cc1cc(C(=O)CN2C(=O)C3CC=CCC3C2=O)c(C)n1-c1ccccc1 (configuration not stated) | 10 µM [rising, partial curve]
COc1ccc(OC)c(NC(=O)Cn2cnc3c(cnn3-c3ccccc3)c2=O)c1 | 10 µM [rising, partial curve]
COCCn1c(N)c(C(=O)NCc2cccs2)c2nc3ccccc3nc21 | 15.8 µM [rising, partial curve]
COc1ccc2c(c1)c1nnc(SC)nc1n2C | 3.16 µM [rising, full curve]
CCCCOc1cc(C)nc(NCc2ccccc2)n1 | 10 µM [rising, single point]
CC(=Nc1ccc2c(c1)nc(CO)n2C)C1=C(O)CC(C)(C)CC1=O | 0.0398 µM [falling, partial curve]
CCOc1cc(C(=O)N2CCCC2)cc(OCC)c1OCC | 0.00316 µM [falling, full curve, poor fit]

Among those listed so far, these have a Cl atom.
SMILES | AC50
COc1ccc(Cl)c(Cn2c(NCC(C)O)nc3c2c(=O)n(C)c(=O)n3C)c1 (configuration not stated) | 15.8 µM [rising, partial curve]
Cc1sc(NC(=O)c2ccc(Cl)s2)c(C(N)=O)c1C | 25.1 µM [rising, single point]
CN(C)c1ncc2nc(-c3ccc(Cl)cc3)c(=O)n(CCC#N)c2n1 | 5.01 µM [rising, partial curve]
Cc1ccc(Cl)cc1N1CCN(C(=O)CCS(=O)(=O)c2cccc3nonc23)CC1 | 0.01 µM [falling, full curve, poor fit]
N#C/C=C\Oc1ccc(Cl)cc1N | 15.8 µM [falling, partial curve]
O=C(Nc1nc(-c2cc(Cl)sc2Cl)cs1)c1cccs1 | 3.16 µM [falling, full curve]
O=C(COc1ccccc1Cl)OCC(=O)N1CCN(S(=O)(=O)c2ccccc2)CC1 | 0.00398 µM [falling, full curve, poor fit]
CC(C)(C)OC(=O)NCCCCCc1nnc(SCC(=O)Nc2cccc(Cl)c2)o1 | 3.16 µM [falling, partial curve]

Next part

SMILES | AC50
CCCCN=c1sc(C(=O)OC)cc(=O)n1CCCC | 20 µM [falling, partial curve]
Cc1cc(C)nc(SCc2nc3ccccc3n2C)n1 | 10 µM [rising, partial curve]
COc1ccc(CCNc2oc(-c3ccccc3OC)nc2C#N)cc1 | 12.6 µM [rising, partial curve]
Cc1cc(C)nc(-n2nc(C)cc2NC(=O)COC(=O)CCC(=O)c2cccs2)n1 | 10 µM [rising, partial curve]
COCCn1c(=O)c(-c2ccc(OC)cc2)nc2cnc(Oc3ccccc3)nc21 | 12.6 µM [rising, partial curve]
CC1Cc2ccccc2N1C(=O)CSc1nnc2sc3ccccc3n12 (configuration not stated) | 20 µM [rising, single point]
O=C(NCCCN1CCCC1=O)c1nnc(Cc2c(F)cccc2Cl)o1 | 10 µM [falling, partial curve, poor fit]
Cc1ccc(N2CCN(CCC(=O)O)CC2)cc1 | 5.01 µM [rising, partial curve]
Cc1cc(-c2ccccc2)c(C#N)c(N)n1 | 10 µM [rising, partial curve]
O=c1c(-c2ccc(F)cc2)nc2cncnc2n1Cc1ccc(F)cc1 | 10 µM [rising, partial curve]
CCc1nnc(NC(=O)C2CCN(c3nccc(C)n3)CC2)s1 | 25.1 µM [rising, single point]
Cc1cc(-c2ccccc2)nn1-c1nc2c(c(=O)[nH]c(=O)n2C)n1C | 12.6 µM [rising, partial curve]
CCN1CCN(C(=O)c2cn(CCOC)c(=O)c3c2c2ccccc2n3C)CC1 | 0.0251 µM [falling, full curve, poor fit]
COc1ccc(-c2nc3nc(C)c(Cc4ccccc4)c(=O)n3[nH]2)cc1 | 25.1 µM [rising, single point]
COc1ccc(-c2nc3cnc(OC)nc3n(Cc3cccs3)c2=O)cc1 | 10 µM [rising, partial curve]
O=c1cccc(-c2ccc(Br)cc2)o1 | 0.251 µM [rising, full curve]
Cc1onc(-c2ccccc2)c1C(=O)Nc1ccncc1 | 1.58 µM [falling, partial curve]
Cc1cc2nnc(SC(C)C#N)n2c2ccccc12 (configuration not stated) | 25.1 µM [rising, single point]
COC(=O)[C@@H](NC(=O)NCc1cccc(OC)c1)C(C)C | 3.98 µM [falling, full curve, poor fit]
CCNc1ncc2nc(CCc3ccccc3)c(=O)n(-c3ccc(OC)cc3)c2n1 | 15.8 µM [rising, partial curve]
COC(=O)CN(c1ccc(OC)cc1)S(=O)(=O)c1c(C)noc1C | 0.251 µM [falling, full curve]

From PubChem BioAssay AID662 (National Center for Advancing Translational Sciences (NCATS), 2007)
